Paper PMC3690481
These are yes or no findings as the source states them, for the method shown. In cells and extracts the contact can be indirect. Some results given as binding are weak or reduced against the parent protein; the word gives no strength.

The chains behind the UniProt entries cited, without tags or fusion partners.
UniProt Q9Y6K9: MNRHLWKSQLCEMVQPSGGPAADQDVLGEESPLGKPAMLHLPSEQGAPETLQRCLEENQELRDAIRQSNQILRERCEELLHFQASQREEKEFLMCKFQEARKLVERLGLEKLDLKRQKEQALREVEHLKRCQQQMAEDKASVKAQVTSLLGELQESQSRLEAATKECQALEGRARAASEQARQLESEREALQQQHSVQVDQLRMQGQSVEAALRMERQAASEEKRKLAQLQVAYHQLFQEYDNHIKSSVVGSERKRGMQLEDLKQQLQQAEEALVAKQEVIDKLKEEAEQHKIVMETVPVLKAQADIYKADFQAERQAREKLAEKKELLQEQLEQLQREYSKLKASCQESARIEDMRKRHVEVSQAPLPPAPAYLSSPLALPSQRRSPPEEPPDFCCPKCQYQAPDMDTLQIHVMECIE
UniProt Q96EP0: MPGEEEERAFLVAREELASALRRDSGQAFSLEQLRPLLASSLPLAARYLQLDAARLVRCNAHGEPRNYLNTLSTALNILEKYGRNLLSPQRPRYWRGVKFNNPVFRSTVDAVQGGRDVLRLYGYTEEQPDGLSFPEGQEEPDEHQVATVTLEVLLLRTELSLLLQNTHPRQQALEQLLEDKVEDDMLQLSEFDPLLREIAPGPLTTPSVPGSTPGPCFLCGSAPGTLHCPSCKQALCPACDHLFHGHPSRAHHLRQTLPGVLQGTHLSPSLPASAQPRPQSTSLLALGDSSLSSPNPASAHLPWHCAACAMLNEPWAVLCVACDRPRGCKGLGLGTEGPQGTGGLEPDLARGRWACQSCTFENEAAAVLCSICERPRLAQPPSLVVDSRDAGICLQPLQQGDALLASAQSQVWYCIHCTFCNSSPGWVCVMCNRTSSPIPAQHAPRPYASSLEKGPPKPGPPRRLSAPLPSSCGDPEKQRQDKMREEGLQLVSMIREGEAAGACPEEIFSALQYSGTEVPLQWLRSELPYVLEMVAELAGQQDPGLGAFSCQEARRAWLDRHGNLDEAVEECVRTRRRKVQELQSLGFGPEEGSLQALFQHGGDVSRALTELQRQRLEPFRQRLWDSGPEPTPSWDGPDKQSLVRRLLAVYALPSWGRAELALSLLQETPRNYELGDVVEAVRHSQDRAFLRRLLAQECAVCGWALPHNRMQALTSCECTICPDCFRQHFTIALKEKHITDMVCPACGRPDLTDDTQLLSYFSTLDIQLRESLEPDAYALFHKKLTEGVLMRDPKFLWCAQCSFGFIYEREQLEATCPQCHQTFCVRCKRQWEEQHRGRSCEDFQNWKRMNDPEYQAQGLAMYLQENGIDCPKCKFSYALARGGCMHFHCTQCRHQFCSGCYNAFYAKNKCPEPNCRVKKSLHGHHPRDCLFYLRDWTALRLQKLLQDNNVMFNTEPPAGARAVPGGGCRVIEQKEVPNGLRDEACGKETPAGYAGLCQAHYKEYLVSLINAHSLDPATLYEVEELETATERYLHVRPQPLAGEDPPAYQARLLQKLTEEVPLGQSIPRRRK
UniProt Q96BN8: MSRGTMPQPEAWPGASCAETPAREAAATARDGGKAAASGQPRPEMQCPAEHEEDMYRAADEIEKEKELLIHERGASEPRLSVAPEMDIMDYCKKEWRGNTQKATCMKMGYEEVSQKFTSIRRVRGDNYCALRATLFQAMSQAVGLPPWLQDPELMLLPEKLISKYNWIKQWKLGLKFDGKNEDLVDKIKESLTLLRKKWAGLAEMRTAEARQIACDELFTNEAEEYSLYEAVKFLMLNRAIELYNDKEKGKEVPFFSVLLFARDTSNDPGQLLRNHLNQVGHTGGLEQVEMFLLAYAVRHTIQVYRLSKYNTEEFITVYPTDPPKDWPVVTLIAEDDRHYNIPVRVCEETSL

How the values were obtained:
[1] = biological target: GST-tagged NEMO wild-type (UniProt Q9Y6K9); assay: pull-down; GST-NEMO transfected with or without LUBAC into doxycycline-induced control or OTULIN-overexpressing T-REx 293 cells; lysate in PBS, 0.1% Triton X-100, 2 mM NEM on GSH sepharose overnight; western blot
[2] = biological target: T1, endogenous SHARPIN (human (endogenous in HEK 293ET)) (UniProt Q9H0F6); assay: co-IP; IP of endogenous SHARPIN, unstimulated and after TNFα (100 ng/ml); western blot
T1 sequence: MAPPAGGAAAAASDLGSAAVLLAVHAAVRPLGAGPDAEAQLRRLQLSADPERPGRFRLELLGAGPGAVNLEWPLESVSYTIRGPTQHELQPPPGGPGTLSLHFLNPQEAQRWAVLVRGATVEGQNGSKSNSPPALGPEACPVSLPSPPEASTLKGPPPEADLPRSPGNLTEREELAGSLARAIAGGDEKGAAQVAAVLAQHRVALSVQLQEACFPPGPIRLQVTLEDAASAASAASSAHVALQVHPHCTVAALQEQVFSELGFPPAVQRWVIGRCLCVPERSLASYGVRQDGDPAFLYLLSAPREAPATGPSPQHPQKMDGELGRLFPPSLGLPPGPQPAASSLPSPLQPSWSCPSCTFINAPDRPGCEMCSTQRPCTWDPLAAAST

Substance	binding [1]	binding [2]
HOIP (transfected LUBAC component) (from UniProt Q96EP0 1-1072) (enzyme)	binds	
MRGS6His-tagged OTULIN (from UniProt Q96BN8 1-352) (enzyme)	binds	
HOIL-1L (transfected LUBAC component) (from UniProt Q9BYM8-1 1-510) (enzyme)	binds	
endogenous HOIP (from UniProt Q96EP0 1-1072) (enzyme)		binds
